From patent US10221137B2, “Herbicidal phenylpyridines” (BASF SE, priority 2015, dated 2019)
Some entries share one result that the patent states for a list of compounds.

Tests used:
Assay in all cases: greenhouse experiment, post-emergence treatment
Type in all cases: in vivo
Conditions in all cases: application rate of 16 g/ha, post-emergence method; scale from 0 to 100
Setaria viridis = system: Setaria viridis
Description: (§1) The seeds of the test plants were sown separately for each species. For the post-emergence treatment, the test plants were first grown to a height of 3 to 15 cm, depending on the plant habit, and only then treated with the active ingredients which had been suspended or emulsified in water. For this purpose, the test plants were either sown directly and grown in the same containers, or they were first grown separately as seedlings and transplanted into the test containers a few days prior to treatment. Depending on the species, the plants were kept at 10-25° C. or 20-35° C., respectively. The test period extended over 2 to 4 weeks. During this time, the plants were tended, and their response to the individual treatments was evaluated. Evaluation was carried out using a scale from 0 to 100. 100 means no emergence of the plants, or complete destruction of at least the aerial moieties, and 0 means no damage, or normal course of growth. A good herbicidal activity is given at values of at least 70 and a very good herbicidal activity is given at values of at least 85. The plants used in the greenhouse experiments were of the following species: [table]

Chenopodium album = system: Chenopodium album
Description: as §1

Amaranthus retroflexus = system: Amaranthus retroflexus
Description: as §1

## COC(=O)C(C)OC(=O)C(OC)Oc1cc(-c2ncc(C(F)(F)F)cc2Cl)c(F)cc1Cl (mixture of isomers) [Example 30]
Setaria viridis
  herbicidal activity against Setaria viridis: very good herbicidal activity (a very good herbicidal activity is given at values of at least 85)
Chenopodium album
  herbicidal activity against Chenopodium album: very good herbicidal activity (a very good herbicidal activity is given at values of at least 85)
Amaranthus retroflexus
  herbicidal activity against Amaranthus retroflexus: very good herbicidal activity (a very good herbicidal activity is given at values of at least 85)

## COC(=O)C(OC)Oc1cc(-c2ncc(C(F)F)cc2Cl)c(F)cc1Cl (racemic) [Example 7]
Setaria viridis
  herbicidal activity against Setaria viridis: very good herbicidal activity (a very good herbicidal activity is given at values of at least 85)
Chenopodium album
  herbicidal activity against Chenopodium album: very good herbicidal activity (a very good herbicidal activity is given at values of at least 85)
Amaranthus retroflexus
  herbicidal activity against Amaranthus retroflexus: very good herbicidal activity (a very good herbicidal activity is given at values of at least 85)

## COC(=O)C(OC)Oc1cc(-c2ncc(C(F)(F)F)cc2F)c(F)cc1Cl (racemic) [Example 8]
Setaria viridis
  herbicidal activity against Setaria viridis: very good herbicidal activity (a very good herbicidal activity is given at values of at least 85)
Chenopodium album
  herbicidal activity against Chenopodium album: very good herbicidal activity (a very good herbicidal activity is given at values of at least 85)
Amaranthus retroflexus
  herbicidal activity against Amaranthus retroflexus: very good herbicidal activity (a very good herbicidal activity is given at values of at least 85)

## COC(=O)C(OC)Oc1cc(-c2ncc(C(F)(F)F)cc2Cl)ccc1Cl (racemic) [Example 10]
Setaria viridis
  herbicidal activity against Setaria viridis: very good herbicidal activity (a very good herbicidal activity is given at values of at least 85)
Chenopodium album
  herbicidal activity against Chenopodium album: very good herbicidal activity (a very good herbicidal activity is given at values of at least 85)
Amaranthus retroflexus
  herbicidal activity against Amaranthus retroflexus: very good herbicidal activity (a very good herbicidal activity is given at values of at least 85)

## COC(Oc1cc(-c2ncc(C(F)(F)F)cc2Cl)c(F)cc1Cl)C(=O)O (racemic) [Example 11]
Setaria viridis
  herbicidal activity against Setaria viridis: very good herbicidal activity (a very good herbicidal activity is given at values of at least 85)
Chenopodium album
  herbicidal activity against Chenopodium album: very good herbicidal activity (a very good herbicidal activity is given at values of at least 85)
Amaranthus retroflexus
  herbicidal activity against Amaranthus retroflexus: very good herbicidal activity (a very good herbicidal activity is given at values of at least 85)

## CCOC(=O)C(OC)Oc1cc(-c2ncc(C(F)(F)F)cc2Cl)c(F)cc1Cl (racemic) [Example 12]
Setaria viridis
  herbicidal activity against Setaria viridis: very good herbicidal activity (a very good herbicidal activity is given at values of at least 85)
Chenopodium album
  herbicidal activity against Chenopodium album: very good herbicidal activity (a very good herbicidal activity is given at values of at least 85)
Amaranthus retroflexus
  herbicidal activity against Amaranthus retroflexus: very good herbicidal activity (a very good herbicidal activity is given at values of at least 85)

## CCCOC(=O)C(OC)Oc1cc(-c2ncc(C(F)(F)F)cc2Cl)c(F)cc1Cl (racemic) [Example 13]
Setaria viridis
  herbicidal activity against Setaria viridis: very good herbicidal activity (a very good herbicidal activity is given at values of at least 85)
Chenopodium album
  herbicidal activity against Chenopodium album: very good herbicidal activity (a very good herbicidal activity is given at values of at least 85)
Amaranthus retroflexus
  herbicidal activity against Amaranthus retroflexus: very good herbicidal activity (a very good herbicidal activity is given at values of at least 85)

## CCC(CC)OC(=O)C(OC)Oc1cc(-c2ncc(C(F)(F)F)cc2Cl)c(F)cc1Cl (racemic) [Example 14]
Setaria viridis
  herbicidal activity against Setaria viridis: very good herbicidal activity (a very good herbicidal activity is given at values of at least 85)
Chenopodium album
  herbicidal activity against Chenopodium album: very good herbicidal activity (a very good herbicidal activity is given at values of at least 85)
Amaranthus retroflexus
  herbicidal activity against Amaranthus retroflexus: very good herbicidal activity (a very good herbicidal activity is given at values of at least 85)

## C=C(C)COC(=O)C(OC)Oc1cc(-c2ncc(C(F)(F)F)cc2Cl)c(F)cc1Cl (racemic) [Example 15]
Setaria viridis
  herbicidal activity against Setaria viridis: very good herbicidal activity (a very good herbicidal activity is given at values of at least 85)
Chenopodium album
  herbicidal activity against Chenopodium album: very good herbicidal activity (a very good herbicidal activity is given at values of at least 85)
Amaranthus retroflexus
  herbicidal activity against Amaranthus retroflexus: very good herbicidal activity (a very good herbicidal activity is given at values of at least 85)

## C=CCOC(=O)C(OC)Oc1cc(-c2ncc(C(F)(F)F)cc2Cl)c(F)cc1Cl (racemic) [Example 16]
Setaria viridis
  herbicidal activity against Setaria viridis: very good herbicidal activity (a very good herbicidal activity is given at values of at least 85)
Chenopodium album
  herbicidal activity against Chenopodium album: very good herbicidal activity (a very good herbicidal activity is given at values of at least 85)
Amaranthus retroflexus
  herbicidal activity against Amaranthus retroflexus: very good herbicidal activity (a very good herbicidal activity is given at values of at least 85)

## C#CCOC(=O)C(OC)Oc1cc(-c2ncc(C(F)(F)F)cc2Cl)c(F)cc1Cl (racemic) [Example 17]
Setaria viridis
  herbicidal activity against Setaria viridis: very good herbicidal activity (a very good herbicidal activity is given at values of at least 85)
Chenopodium album
  herbicidal activity against Chenopodium album: very good herbicidal activity (a very good herbicidal activity is given at values of at least 85)
Amaranthus retroflexus
  herbicidal activity against Amaranthus retroflexus: very good herbicidal activity (a very good herbicidal activity is given at values of at least 85)

## CC#CCOC(=O)C(OC)Oc1cc(-c2ncc(C(F)(F)F)cc2Cl)c(F)cc1Cl (racemic) [Example 18]
Setaria viridis
  herbicidal activity against Setaria viridis: very good herbicidal activity (a very good herbicidal activity is given at values of at least 85)
Chenopodium album
  herbicidal activity against Chenopodium album: very good herbicidal activity (a very good herbicidal activity is given at values of at least 85)
Amaranthus retroflexus
  herbicidal activity against Amaranthus retroflexus: very good herbicidal activity (a very good herbicidal activity is given at values of at least 85)

## C#CCCCOC(=O)C(OC)Oc1cc(-c2ncc(C(F)(F)F)cc2Cl)c(F)cc1Cl (racemic) [Example 19]
Setaria viridis
  herbicidal activity against Setaria viridis: very good herbicidal activity (a very good herbicidal activity is given at values of at least 85)
Chenopodium album
  herbicidal activity against Chenopodium album: very good herbicidal activity (a very good herbicidal activity is given at values of at least 85)
Amaranthus retroflexus
  herbicidal activity against Amaranthus retroflexus: very good herbicidal activity (a very good herbicidal activity is given at values of at least 85)

## COC(Oc1cc(-c2ncc(C(F)(F)F)cc2Cl)c(F)cc1Cl)C(=O)N(C)CC#N (stereo not drawn) [Example 51]
Chenopodium album
  herbicidal activity against Chenopodium album: very good herbicidal activity (a very good herbicidal activity is given at values of at least 85)
Amaranthus retroflexus
  herbicidal activity against Amaranthus retroflexus: very good herbicidal activity (a very good herbicidal activity is given at values of at least 85)

## COC(Oc1cc(-c2ncc(C(F)(F)F)cc2Cl)c(F)cc1Cl)C(=O)N1CC=CC1 (stereo not drawn) [Example 52]
Chenopodium album
  herbicidal activity against Chenopodium album: very good herbicidal activity (a very good herbicidal activity is given at values of at least 85)
Amaranthus retroflexus
  herbicidal activity against Amaranthus retroflexus: very good herbicidal activity (a very good herbicidal activity is given at values of at least 85)

## COC(Oc1cc(-c2ncc(C(F)(F)F)cc2Cl)c(F)cc1Cl)C(=O)N(C)C(C)C (stereo not drawn) [Example 53]
Chenopodium album
  herbicidal activity against Chenopodium album: very good herbicidal activity (a very good herbicidal activity is given at values of at least 85)
Amaranthus retroflexus
  herbicidal activity against Amaranthus retroflexus: very good herbicidal activity (a very good herbicidal activity is given at values of at least 85)

## C=CCN(C)C(=O)C(OC)Oc1cc(-c2ncc(C(F)(F)F)cc2Cl)c(F)cc1Cl (stereo not drawn) [Example 54]
Chenopodium album
  herbicidal activity against Chenopodium album: very good herbicidal activity (a very good herbicidal activity is given at values of at least 85)
Amaranthus retroflexus
  herbicidal activity against Amaranthus retroflexus: very good herbicidal activity (a very good herbicidal activity is given at values of at least 85)

## CCCN(C)C(=O)C(OC)Oc1cc(-c2ncc(C(F)(F)F)cc2Cl)c(F)cc1Cl (stereo not drawn) [Example 55]
Chenopodium album
  herbicidal activity against Chenopodium album: very good herbicidal activity (a very good herbicidal activity is given at values of at least 85)
Amaranthus retroflexus
  herbicidal activity against Amaranthus retroflexus: very good herbicidal activity (a very good herbicidal activity is given at values of at least 85)

## COC(Oc1cc(-c2ncc(C(F)(F)F)cc2Cl)c(F)cc1Cl)C(=O)N1CCSCC1 (stereo not drawn) [Example 58]
Chenopodium album
  herbicidal activity against Chenopodium album: very good herbicidal activity (a very good herbicidal activity is given at values of at least 85)
Amaranthus retroflexus
  herbicidal activity against Amaranthus retroflexus: very good herbicidal activity (a very good herbicidal activity is given at values of at least 85)

## COC(Oc1cc(-c2ncc(C(F)(F)F)cc2Cl)c(F)cc1Cl)C(=O)N1CCOCC1 (stereo not drawn) [Example 69]
Chenopodium album
  herbicidal activity against Chenopodium album: very good herbicidal activity (a very good herbicidal activity is given at values of at least 85)
Amaranthus retroflexus
  herbicidal activity against Amaranthus retroflexus: very good herbicidal activity (a very good herbicidal activity is given at values of at least 85)

## COC(Oc1cc(-c2ncc(C(F)(F)F)cc2Cl)c(F)cc1Cl)C(=O)N1CCCC1 (stereo not drawn) [Example 70]
Chenopodium album
  herbicidal activity against Chenopodium album: very good herbicidal activity (a very good herbicidal activity is given at values of at least 85)
Amaranthus retroflexus
  herbicidal activity against Amaranthus retroflexus: very good herbicidal activity (a very good herbicidal activity is given at values of at least 85)

## COC(Oc1cc(-c2ncc(C(F)(F)F)cc2Cl)c(F)cc1Cl)C(=O)N1CCC1 (stereo not drawn) [Example 71]
Chenopodium album
  herbicidal activity against Chenopodium album: very good herbicidal activity (a very good herbicidal activity is given at values of at least 85)
Amaranthus retroflexus
  herbicidal activity against Amaranthus retroflexus: very good herbicidal activity (a very good herbicidal activity is given at values of at least 85)
